PubChem BioAssay AID1508597, Cure First | 2020

Aim: 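Genes whose silencing sensitises or protects ovarian cancer cells against rucaparib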 (primary screen)
Cells: human ovarian carcinoma lines grown from tumours: OCI-P5x (papillary serous) and OCI-C5x (clear cell)
Knock-down reagent: siRNA pool against human genes, 1.25 pmol siRNA per well
Timing: 72 h or 96 h, depending on the cell culture
Conditions: rucaparib 20 µM (about IC30) or vehicle, present until read-out
Measurement: 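Luminescent ATP-based viability assay read 72 or 96 h after transfection, depending on culture, given as normalised percent viability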
Scale: viability, normalised: higher = more viable cells remaining
Rule for the call: 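a well counts as a hit if its normalised viability is under 80 percent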
Calls: active = viability under 80%; inactive = viability 80% or more
In all, the deposit lists about 2,100 reagents; this is an unselected part. 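Calls flag viability under 80% in either arm, not effects specific to rucaparib; the reference for percent is not stated.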 Unmarked entries are inactive. A reagent listed more than once was tested more than once; the source does not tell the runs apart. Not given: the 100% reference.

target gene	PubChem SID	rucaparib or vehicle	cell line	technical replicate	viability, normalised (%)
RASSF7 (GeneID 8045)	SID405526420	Rucaparib	OCI-C5x (clear cell)	1	50.8 (active)
RASSF7 (GeneID 8045)	SID405526420	Rucaparib	OCI-C5x (clear cell)	2	50 (active)
RASSF7 (GeneID 8045)	SID405526420	Rucaparib	OCI-C5x (clear cell)	3	64.2 (active)
RASSF7 (GeneID 8045)	SID405526420	Rucaparib	OCI-P5x (serous)	1	69.6 (active)
RASSF7 (GeneID 8045)	SID405526420	Rucaparib	OCI-P5x (serous)	2	94
RASSF7 (GeneID 8045)	SID405526420	Rucaparib	OCI-P5x (serous)	3	88.9
RASSF7 (GeneID 8045)	SID405526420	Vehicle	OCI-C5x (clear cell)	1	76.1 (active)
RASSF7 (GeneID 8045)	SID405526420	Vehicle	OCI-C5x (clear cell)	2	70.4 (active)
RASSF7 (GeneID 8045)	SID405526420	Vehicle	OCI-C5x (clear cell)	3	83.2
RASSF7 (GeneID 8045)	SID405526420	Vehicle	OCI-P5x (serous)	1	82.8
RASSF7 (GeneID 8045)	SID405526420	Vehicle	OCI-P5x (serous)	2	77.3 (active)
RASSF7 (GeneID 8045)	SID405526420	Vehicle	OCI-P5x (serous)	3	84.2
COX6C (GeneID 1345)	SID405526380	Rucaparib	OCI-C5x (clear cell)	1	65.6 (active)
COX6C (GeneID 1345)	SID405526380	Rucaparib	OCI-C5x (clear cell)	2	50.8 (active)
COX6C (GeneID 1345)	SID405526380	Rucaparib	OCI-C5x (clear cell)	3	50.1 (active)
COX6C (GeneID 1345)	SID405526380	Rucaparib	OCI-P5x (serous)	1	74.7 (active)
COX6C (GeneID 1345)	SID405526380	Rucaparib	OCI-P5x (serous)	2	73.3 (active)
COX6C (GeneID 1345)	SID405526380	Rucaparib	OCI-P5x (serous)	3	84.4
COX6C (GeneID 1345)	SID405526380	Vehicle	OCI-C5x (clear cell)	1	55.8 (active)
COX6C (GeneID 1345)	SID405526380	Vehicle	OCI-C5x (clear cell)	2	46.4 (active)
COX6C (GeneID 1345)	SID405526380	Vehicle	OCI-C5x (clear cell)	3	56.1 (active)
COX6C (GeneID 1345)	SID405526380	Vehicle	OCI-P5x (serous)	1	68.7 (active)
COX6C (GeneID 1345)	SID405526380	Vehicle	OCI-P5x (serous)	2	73.5 (active)
COX6C (GeneID 1345)	SID405526380	Vehicle	OCI-P5x (serous)	3	85.7
SOX14 (GeneID 8403)	SID405527357	Rucaparib	OCI-C5x (clear cell)	1	47.1 (active)
SOX14 (GeneID 8403)	SID405527357	Rucaparib	OCI-C5x (clear cell)	2	48.4 (active)
SOX14 (GeneID 8403)	SID405527357	Rucaparib	OCI-C5x (clear cell)	3	44.2 (active)
SOX14 (GeneID 8403)	SID405527357	Rucaparib	OCI-P5x (serous)	1	45.4 (active)
SOX14 (GeneID 8403)	SID405527357	Rucaparib	OCI-P5x (serous)	2	62.6 (active)
SOX14 (GeneID 8403)	SID405527357	Rucaparib	OCI-P5x (serous)	3	60.9 (active)
SOX14 (GeneID 8403)	SID405527357	Vehicle	OCI-C5x (clear cell)	1	49.7 (active)
SOX14 (GeneID 8403)	SID405527357	Vehicle	OCI-C5x (clear cell)	2	34.2 (active)
SOX14 (GeneID 8403)	SID405527357	Vehicle	OCI-C5x (clear cell)	3	44.6 (active)
SOX14 (GeneID 8403)	SID405527357	Vehicle	OCI-P5x (serous)	1	47.4 (active)
SOX14 (GeneID 8403)	SID405527357	Vehicle	OCI-P5x (serous)	2	46.7 (active)
SOX14 (GeneID 8403)	SID405527357	Vehicle	OCI-P5x (serous)	3	58.7 (active)
EPHA6 (GeneID 285220)	SID405527837	Rucaparib	OCI-C5x (clear cell)	1	56.4 (active)
EPHA6 (GeneID 285220)	SID405527837	Rucaparib	OCI-C5x (clear cell)	2	51.6 (active)
EPHA6 (GeneID 285220)	SID405527837	Rucaparib	OCI-C5x (clear cell)	3	48.1 (active)
EPHA6 (GeneID 285220)	SID405527837	Rucaparib	OCI-P5x (serous)	1	86.9
EPHA6 (GeneID 285220)	SID405527837	Rucaparib	OCI-P5x (serous)	2	92.6
EPHA6 (GeneID 285220)	SID405527837	Rucaparib	OCI-P5x (serous)	3	78.5 (active)
EPHA6 (GeneID 285220)	SID405527837	Vehicle	OCI-C5x (clear cell)	1	67.6 (active)
EPHA6 (GeneID 285220)	SID405527837	Vehicle	OCI-C5x (clear cell)	2	73.6 (active)
EPHA6 (GeneID 285220)	SID405527837	Vehicle	OCI-C5x (clear cell)	3	52.9 (active)
EPHA6 (GeneID 285220)	SID405527837	Vehicle	OCI-P5x (serous)	1	78.1 (active)
EPHA6 (GeneID 285220)	SID405527837	Vehicle	OCI-P5x (serous)	2	75.1 (active)
EPHA6 (GeneID 285220)	SID405527837	Vehicle	OCI-P5x (serous)	3	74.1 (active)

Next part; the last 8 above are carried over.
target gene	PubChem SID	rucaparib or vehicle	cell line	technical replicate	viability, normalised (%)
EPHA6 (GeneID 285220)	SID405527837	Rucaparib	OCI-P5x (serous)	2	92.6
EPHA6 (GeneID 285220)	SID405527837	Rucaparib	OCI-P5x (serous)	3	78.5 (active)
EPHA6 (GeneID 285220)	SID405527837	Vehicle	OCI-C5x (clear cell)	1	67.6 (active)
EPHA6 (GeneID 285220)	SID405527837	Vehicle	OCI-C5x (clear cell)	2	73.6 (active)
EPHA6 (GeneID 285220)	SID405527837	Vehicle	OCI-C5x (clear cell)	3	52.9 (active)
EPHA6 (GeneID 285220)	SID405527837	Vehicle	OCI-P5x (serous)	1	78.1 (active)
EPHA6 (GeneID 285220)	SID405527837	Vehicle	OCI-P5x (serous)	2	75.1 (active)
EPHA6 (GeneID 285220)	SID405527837	Vehicle	OCI-P5x (serous)	3	74.1 (active)
VPS72 (GeneID 6944)	SID405526618	Rucaparib	OCI-C5x (clear cell)	1	47.5 (active)
VPS72 (GeneID 6944)	SID405526618	Rucaparib	OCI-C5x (clear cell)	2	51.6 (active)
VPS72 (GeneID 6944)	SID405526618	Rucaparib	OCI-C5x (clear cell)	3	50.5 (active)
VPS72 (GeneID 6944)	SID405526618	Rucaparib	OCI-P5x (serous)	1	55.1 (active)
VPS72 (GeneID 6944)	SID405526618	Rucaparib	OCI-P5x (serous)	2	62.3 (active)
VPS72 (GeneID 6944)	SID405526618	Rucaparib	OCI-P5x (serous)	3	52.7 (active)
VPS72 (GeneID 6944)	SID405526618	Vehicle	OCI-C5x (clear cell)	1	22.8 (active)
VPS72 (GeneID 6944)	SID405526618	Vehicle	OCI-C5x (clear cell)	2	34 (active)
VPS72 (GeneID 6944)	SID405526618	Vehicle	OCI-C5x (clear cell)	3	40.3 (active)
VPS72 (GeneID 6944)	SID405526618	Vehicle	OCI-P5x (serous)	1	61.9 (active)
VPS72 (GeneID 6944)	SID405526618	Vehicle	OCI-P5x (serous)	2	80
VPS72 (GeneID 6944)	SID405526618	Vehicle	OCI-P5x (serous)	3	68.6 (active)
PARP3 (GeneID 10039)	SID405527112	Rucaparib	OCI-C5x (clear cell)	1	45.6 (active)
PARP3 (GeneID 10039)	SID405527112	Rucaparib	OCI-C5x (clear cell)	1	42.7 (active)
PARP3 (GeneID 10039)	SID405527112	Rucaparib	OCI-C5x (clear cell)	2	37.7 (active)
PARP3 (GeneID 10039)	SID405527112	Rucaparib	OCI-C5x (clear cell)	2	49.6 (active)
PARP3 (GeneID 10039)	SID405527112	Rucaparib	OCI-C5x (clear cell)	3	38.2 (active)
PARP3 (GeneID 10039)	SID405527112	Rucaparib	OCI-C5x (clear cell)	3	54.8 (active)
PARP3 (GeneID 10039)	SID405527112	Rucaparib	OCI-P5x (serous)	1	43.4 (active)
PARP3 (GeneID 10039)	SID405527112	Rucaparib	OCI-P5x (serous)	1	55.6 (active)
PARP3 (GeneID 10039)	SID405527112	Rucaparib	OCI-P5x (serous)	2	59.9 (active)
PARP3 (GeneID 10039)	SID405527112	Rucaparib	OCI-P5x (serous)	2	45 (active)
PARP3 (GeneID 10039)	SID405527112	Rucaparib	OCI-P5x (serous)	3	39 (active)
PARP3 (GeneID 10039)	SID405527112	Rucaparib	OCI-P5x (serous)	3	49.1 (active)
PARP3 (GeneID 10039)	SID405527112	Vehicle	OCI-C5x (clear cell)	1	33.2 (active)
PARP3 (GeneID 10039)	SID405527112	Vehicle	OCI-C5x (clear cell)	1	65 (active)
PARP3 (GeneID 10039)	SID405527112	Vehicle	OCI-C5x (clear cell)	2	37.8 (active)
PARP3 (GeneID 10039)	SID405527112	Vehicle	OCI-C5x (clear cell)	2	30.8 (active)
PARP3 (GeneID 10039)	SID405527112	Vehicle	OCI-C5x (clear cell)	3	49.1 (active)
PARP3 (GeneID 10039)	SID405527112	Vehicle	OCI-C5x (clear cell)	3	43.4 (active)
PARP3 (GeneID 10039)	SID405527112	Vehicle	OCI-P5x (serous)	1	53.7 (active)
PARP3 (GeneID 10039)	SID405527112	Vehicle	OCI-P5x (serous)	1	44.1 (active)
PARP3 (GeneID 10039)	SID405527112	Vehicle	OCI-P5x (serous)	2	46.5 (active)
PARP3 (GeneID 10039)	SID405527112	Vehicle	OCI-P5x (serous)	2	55.2 (active)
PARP3 (GeneID 10039)	SID405527112	Vehicle	OCI-P5x (serous)	3	64 (active)
PARP3 (GeneID 10039)	SID405527112	Vehicle	OCI-P5x (serous)	3	82.3
